Measured values: patent US20050075292A1
These are yes or no findings as the source states them, for the method shown. Some entries that bind do so weakly or less than the wild type.

Target: T1, CXCR4 chemokine receptor on the cell surface (human), P61073
T1 chain: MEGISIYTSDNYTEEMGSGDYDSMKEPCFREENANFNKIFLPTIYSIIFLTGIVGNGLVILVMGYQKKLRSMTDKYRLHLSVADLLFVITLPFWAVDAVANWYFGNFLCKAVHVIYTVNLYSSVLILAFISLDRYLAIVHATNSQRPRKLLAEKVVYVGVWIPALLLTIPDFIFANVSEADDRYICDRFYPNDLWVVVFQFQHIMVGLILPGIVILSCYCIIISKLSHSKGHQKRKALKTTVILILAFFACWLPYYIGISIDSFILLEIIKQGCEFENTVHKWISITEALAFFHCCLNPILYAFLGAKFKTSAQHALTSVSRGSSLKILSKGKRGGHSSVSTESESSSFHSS
Experiment: confocal microscopy of CEM X4/R5 cells; on paraformaldehyde-fixed cells hBD-2 was found bound to the cell membrane, detected with anti-hBD-2 antibody
Settings: remark: other sources report otherwise

- binding: binds
Binder: GIGDPVTCLKSGAICHPVFCPRRYKQIGTCGLPGTKCCKKP [recombinant human beta-defensin-2]
